Where a name gives a salt, the structure may show the parent alone. About 130 (2.5%) of roughly 5,300 compounds showed an effect of 50% or more. Some of the results follow. Square brackets hold non-standard residues; d marks the D form. Peptide text beside a SMILES is read from it.
The compounds below were run on M. mycetomatis strain mm55. Settings: primary screen, metabolic activity vs growth control; 96 h, 2 µM; inhibitor.

Compound | % viability [%]
CC(C)(C)C(=O)CN1C(=O)[C@H](NC(=O)Nc2cccc(C(=O)O)c2)CN(C2CCCCC2)c2ccccc21 [ONC0000935, nastorazepide] | 59.25
O=C(C(c1ccccc1)c1ccccc1)N1CCN(CC(O)COc2cccc3ncccc23)CC1 (stereo not drawn) [ONC0001368, dofequidar fumarate] | 112
CC(=O)OCC(=O)[C@@]1(O)CC[C@H]2[C@@H]3CCC4=CC(=O)CC[C@]4(C)[C@@]3(F)[C@@H](O)C[C@@]21C [ONC0000716, fludrocortisone acetate] | 64.5
O=C(O)CCCCCCCC(=O)O [ONC0003021, azelaic acid] | 89.13
O=C(O)CN1C(=O)c2cccc3cccc(c23)C1=O [ONC0000703, alrestatin] | 120.2
CC[N+](C)(CC)CCOC(=O)C1c2ccccc2Oc2ccccc21 [ONC0002827, methantheline] | 92.6
Cc1ccc(C(=O)c2ccc(CC(=O)O)n2C)cc1 [ONC0000546, tolmetin sodium] | 114.1
CCCCN(CCCC)CCCOC(=O)c1ccc(N)cc1 [ONC0002425, butacaine sulfate] | 90.95
Cc1ccc2c(c1CCC(=O)O)CC[C@@H](NS(=O)(=O)c1ccc(Cl)cc1)C2 [ONC0001303, terutroban] | 45.19
CC(=O)OCC(=O)[C@@]1(O)CC[C@H]2[C@@H]3CCC4=CC(=O)C=C[C@]4(C)[C@@]3(Cl)[C@@H](Cl)C[C@@]21C [ONC0004015, dichlorisone acetate] | 80.76
CC(C)Oc1cccc(CC(=O)N2CCC[C@](CC[N+]34CCC(c5ccccc5)(CC3)CC4)(c3ccc(Cl)c(Cl)c3)C2)c1 [ONC0001589, sr140333] | 65.88
CC(C)c1c(CN(C)C(C)Cc2ccccc2)n(C)n(-c2ccccc2)c1=O (stereo not drawn) [ONC0005477, famprofazone] | 115.2
C=C(NNC(=S)NNC(=S)Nc1ccccc1Cl)c1ccccn1 [ONC0001982, n2chlorophenyl22e212pyridinylethylidenehydrazinocarbothioylhydrazinecarbothioamide] | 78.69
CCCCCCCCCCCCCCCC(=O)OC(C)C [ONC0002810, isopropyl palmitate] | 113.7
Nc1nc(Nc2ccc3c(c2)CC[C@@H](N2CCCC2)CC3)nn1-c1cc2c(nn1)-c1ccccc1CCC2 [ONC0005604, bemcentinib] | 173.5
COc1ccc(Cl)c(Nc2ncnc3cc(OCC4CCN(C)CC4)c(OC)cc23)c1 [ONC0001486, azm475271] | 71.57
NNCCc1ccccc1 [ONC0000514, phenelzine sulfate] | 72.4
CN1CC[C@@]2(C)c3cc(OC(=O)Nc4ccccc4)ccc3N(C)[C@@H]12 [ONC0005514, phenserine] | 85.26
Cn1ncnc1COc1nn2c(-c3c(F)cccc3F)nnc2cc1C1CCC1 [ONC0005565, mrk409] | 118.6

Compound | % viability [%]
CC(=O)N1N=C(c2ccc(N)cc2)c2cc3c(cc2C[C@H]1C)OCO3 [ONC0000787, talampanel] | 64.15
C[C@H](NC(=O)[C@@H](Cc1c[nH]c2ccccc12)NC(=O)[C@@H](N)Cc1c[nH]cn1)C(=O)N[C@@H](Cc1c[nH]c2ccccc12)C(=O)N[C@H](Cc1ccccc1)C(=O)N[C@@H](CCCCN)C(N)=O [ONC0000387, u75799e] (H-H[dW]AW[dF]K-NH2) | 86.22
C=C1CC[C@H](O)C/C1=C/C=C1\CCC[C@]2(C)[C@@H]([C@H](C)CCCC(C)C)CC[C@@H]12 [ONC0003203, cholecalciferol] | 65.15
c1ccc(-c2n[nH]cc2-c2ccnc3ccccc23)nc1 [ONC0003126, ly364947] | 69.96
Oc1ccc(Cl)cc1 [ONC0000557, parachlorophenol] | 69.2
CCCCn1c(-c2ccccc2)nc(-c2ccccc2)c1CN(Cc1ccc2c(c1)OCO2)Cc1ccc2c(c1)OCO2 [ONC0002511, ndt9513727] | 38.93
COc1cc2c(NC3CCN(C(C)C)CC3)nc(C3CCCCC3)nc2cc1OCCCN1CCCC1 [ONC0001002, unc0638] | 86.49
O=c1[nH]nc2c3c(cccc13)N=C(CN1Cc3ccccc3C1)N2 [ONC0000970, e7449] | 81.41
Cc1ccnc(NC(=O)C(C)c2cccc(C(=O)c3ccccc3)c2)c1 (stereo not drawn) [ONC0003716, piketoprofen] | 97.11
N=C(N)NC(=N)Nc1cccc(Cl)c1 [ONC0002486, mchlorophenylbiguanide] | 76.46
CC(Cc1cccc(C(F)(F)F)c1)NCCOC(=O)c1ccccc1 (stereo not drawn) [ONC0003412, benfluorex hydrochloride] | 115.7
CC(C)CNc1ccnc(NCc2csc(-c3ccccc3)n2)n1 [ONC0000380, khs101] | 85.46
CC(=O)Nc1ccc(C(=O)Nc2ccccc2N)cc1 [ONC0005213, ci994 tacedinaline] | 115.9
COc1cc2c(Nc3ccc(NC(=O)c4ccccc4)cc3)ncnc2cc1OCCCN1CCOCC1 [ONC0003607, zm447439] | 145.2
CC1(C)[C@@H]2CC[C@]1(C)C(=O)C2 [ONC0000752, camphor] | 80.99
COc1cccc2c1c(O)c(C(=O)N(C)c1ccc(C(F)(F)F)cc1)c(=O)n2C [ONC0001379, tasquinimod] | 119.2
CCOC(=O)C1=C(C)NC2=C(C(=O)CC(C)(C)C2)C1c1ccc(-c2ccccc2)cc1 (stereo not drawn) [ONC0000150, itd1] | 73.07
CCCc1cc(C(N)=S)ccn1 [ONC0004191, protionamide] | 96.24
FC(F)(F)c1ccc(CNc2ccc(Cc3c[nH]c4ncccc34)cn2)cc1 [ONC0002656, plx647] | 82.24

Single entries from the results shown:
Under % viability [%], CCCCN(CCCC)CCCOC(=O)c1ccc(N)cc1 [ONC0002425, butacaine sulfate] is entered as 90.95
Under % viability [%], COc1ccc(Cl)c(Nc2ncnc3cc(OCC4CCN(C)CC4)c(OC)cc23)c1 [ONC0001486, azm475271] is entered as 71.57

Continuation.

Compound | % viability [%]
O=C(O)C1CN(Cc2ccc(-c3nc4cc(Cc5ccccc5F)ccc4s3)c(F)c2)C1 [ONC0002231, tcsp14] | 62.33
C#Cc1cccc(Nc2ncnc3cc(OC)c(OCCCCCCC(=O)NO)cc23)c1 [ONC0004844, cudc101] | 104.4
Nc1nc2c(c(=O)[nH]1)NC(CNc1ccc(C(=O)N[C@@H](CCC(=O)O)C(=O)O)cc1)CN2 (stereo partly drawn) [ONC0005519, tetrahydrofolicacid] | 129.8
CC(=O)S[C@@H]1CC2=CC(=O)CC[C@]2(C)[C@H]2CC[C@@]3(C)[C@@H](CC[C@@]34CCC(=O)O4)[C@H]12 [ONC0000548, spironolactone] | 87.32
Nc1n[nH]c2nnc(-c3c(-c4ccccc4)nn4ccccc34)cc12 [ONC0000331, fr180204] | 55.14
CO[C@H]1/C=C/O[C@@]2(C)Oc3c(C)c(O)c4c(O)c(c(/C=N/N5CCN(C6CCCC6)CC5)c(O)c4c3C2=O)NC(=O)/C(C)=C\C=C\[C@H](C)[C@H](O)[C@@H](C)[C@@H](O)[C@@H](C)[C@H](OC(C)=O)[C@@H]1C [ONC0002002, rifapentine] | 77.39
CC(C)(C)NC[C@@H](O)COc1cccc2c1CCCC2=O [ONC0002849, levobunolol] | 116.9
CC(=O)O[C@@H]1CC[C@@]2(C)C(CC[C@]3(C)C2C(=O)C=C2[C@@H]4[C@@H](C)[C@H](C)CC[C@]4(C)CC[C@]23C)[C@@]1(C)C(=O)O (stereo partly drawn) [ONC0003387, acetyl11ketobetaboswellicacid] | 70.79
CC(C)Oc1ccc(-c2nc(-c3cccc4c3CC[C@@H]4NCCO)no2)cc1C#N [ONC0002409, ozanimod] | 70.06
CN1CCC(=C2c3ccccc3C=Cc3ccccc32)CC1 [ONC0004044, cyproheptadine hydrochloride] | 60.6
CSc1nc(-c2ccc(F)cc2)c(-c2ccnc(NC(C)c3ccccc3)c2)[nH]1 (stereo not drawn) [ONC0000840, ml3403] | 74.14
C=CCN1C[C@H](C(=O)N(CCCN(C)C)C(=O)NCC)C[C@@H]2c3cccc4[nH]cc(c34)C[C@H]21 [ONC0003469, cabergoline] | 67.83
CNC1CCCN(c2c(F)cc3c(=O)c(C(=O)O)cn(C4CC4)c3c2OC)C1 (stereo not drawn) [ONC0004924, balofloxacin] | 134.1
CN1CCN(CC/C=C2/c3ccccc3Sc3ccc(S(=O)(=O)N(C)C)cc32)CC1 [ONC0003858, thiothixene] | 64.86
COc1ccc(C(=O)/C(Cc2cc(OC)c(OC)c(OC)c2)=C(\C(=O)O)c2ccc3c(c2)OCO3)cc1 [ONC0002114, pd156707] | 95.79
CC[C@H]1[C@@H](O)[C@@H]2[C@H](CC[C@]3(C)[C@@H]([C@H](C)CCC(=O)O)CC[C@@H]23)[C@@]2(C)CC[C@@H](O)C[C@@H]12 [ONC0000794, int747] | 88.53
C[C@@H](Oc1ccc2[nH]nc(/C=C/c3cnn(CCO)c3)c2c1)c1c(Cl)cncc1Cl [ONC0001103, ly2874455] | 68.7
CC(C)(C=O)Cc1cc(C(C)(C)C)c(O)c(C(C)(C)C)c1 [ONC0001447, cgp13501] | 107.5
CCCCN1[C@@H]2CC[C@H]1C[C@@H](OC(c1ccc(F)cc1)c1ccc(F)cc1)C2 [ONC0003046, jhw007] | 64.39
